PubChem BioAssay AID1259425 | University of Nebraska Medical Center – 2018

Aim: 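Seek colon cancer weak points whose silencing resembles KSR1 loss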 (primary screen)
Cell system: HCT116 human colon cancer cells
Reagent: siRNA pool against human genes, 50 nM siRNA
Read-out: 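mRNA of six signature genes measured together by branched-DNA assay after 50 nM siRNA pool, blank removed, divided by geometric mean of two housekeeping genes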
Reading the numbers: BNIP3L mRNA: higher = more BNIP3L transcript after knockdown; NDRG1 mRNA: higher = more NDRG1 transcript after knockdown
In all, the deposit lists about 14,000 reagents; shown is a part drawn at random. Further read-outs or replicates are left out here. Not given: the time to read-out.

Silencing of SULT1B1 resulted in: BNIP3L mRNA, set 1 = 0.0881; NDRG1 mRNA, set 1 = 0.166.
VRK1 showed BNIP3L mRNA, set 1 = 0.0689; NDRG1 mRNA, set 1 = 0.0468.
After knock-down of TAS2R5, the screen gave BNIP3L mRNA, set 1 = 0.0604; NDRG1 mRNA, set 1 = 0.0619.
For ST3GAL1 the deposit lists BNIP3L mRNA, set 1 = 0.145; NDRG1 mRNA, set 1 = 0.192.
After knock-down of PKD2 the results were BNIP3L mRNA, set 1 = 0.108; NDRG1 mRNA, set 1 = 0.0633.
After knock-down of ASNS, the record shows BNIP3L mRNA, set 1 = 0.071; NDRG1 mRNA, set 1 = 0.0748.
Against LRRC37A2, the entry reads BNIP3L mRNA, set 1 = 0.19; NDRG1 mRNA, set 1 = 0.189.
MMP12 gave BNIP3L mRNA, set 1 = 0.0497; NDRG1 mRNA, set 1 = 0.492.
Knock-down of PDCD6IP resulted in: BNIP3L mRNA, set 1 = 0.036; NDRG1 mRNA, set 1 = 0.129.

Limited to “NDRG1 mRNA, set 1”, for 4 of the entries above:
SULT1B1	0.166
VRK1	0.0468
TAS2R5	0.0619
ST3GAL1	0.192

Additional results:
EXT2 gave BNIP3L mRNA, set 1 = 0.247; NDRG1 mRNA, set 1 = 0.245.
Against H3C1 the deposit lists BNIP3L mRNA, set 1 = 0.036; NDRG1 mRNA, set 1 = 0.614.
For KLF7 the deposit lists BNIP3L mRNA, set 1 = 0.0696; NDRG1 mRNA, set 1 = 0.0404.
Silencing of NADK gave: BNIP3L mRNA, set 1 = 0.0913; NDRG1 mRNA, set 1 = 0.0523.
With knock-down of ANXA8L1, the record shows BNIP3L mRNA, set 1 = 0.116; NDRG1 mRNA, set 1 = 0.178.
Against EHBP1, the values are BNIP3L mRNA, set 1 = 0.209; NDRG1 mRNA, set 1 = 0.443.
Against C4BPA, the entry reads BNIP3L mRNA, set 1 = 0.0992; NDRG1 mRNA, set 1 = 0.283.
Silencing of GOLGA4 gave: BNIP3L mRNA, set 1 = 0.0639; NDRG1 mRNA, set 1 = 0.14.
TRPC5 showed BNIP3L mRNA, set 1 = 0.0901; NDRG1 mRNA, set 1 = 0.193.
Knock-down of STAU1 gave: BNIP3L mRNA, set 1 = 0.215; NDRG1 mRNA, set 1 = 0.209.
Depletion of HCFC1 gave: BNIP3L mRNA, set 1 = 0.049; NDRG1 mRNA, set 1 = 0.0471.
With knock-down of ADH5, the record shows BNIP3L mRNA, set 1 = 0.0981; NDRG1 mRNA, set 1 = 0.373.
Silencing of RNF122 gave: BNIP3L mRNA, set 1 = 0.0668; NDRG1 mRNA, set 1 = 0.184.
RET gave BNIP3L mRNA, set 1 = 0.185; NDRG1 mRNA, set 1 = 0.301.
Against ECI1 the deposit lists BNIP3L mRNA, set 1 = 0.0822; NDRG1 mRNA, set 1 = 0.205.
Silencing of KIF20B gave: BNIP3L mRNA, set 1 = 0.0783; NDRG1 mRNA, set 1 = 0.13.
With knock-down of SETD7, the record shows BNIP3L mRNA, set 1 = 0.0908; NDRG1 mRNA, set 1 = 0.267.
With knock-down of TASL the results were BNIP3L mRNA, set 1 = 0.113; NDRG1 mRNA, set 1 = 0.246.
For MTNR1B, the values are BNIP3L mRNA, set 1 = 0.119; NDRG1 mRNA, set 1 = 0.218.
